{"source": "PubChem BioAssay AID2685", "about": "(National Center for Advancing Translational Sciences (NCATS), 2010)", "note": "The whole screen tested about 320,000 compounds, of which about 2,100 (0.66%) were called active. The shares of active, inactive and inconclusive entries below differ from those in the screen. Calls come from the whole dose curve; as a rule, active = well fitted inhibition curve with a large enough effect in the signal ratio, with a control signal flat (not every such curve was filed as active); inconclusive = small, poorly fitted or top-dose-only effect, or effect the other way, or a change in a side signal; inactive = flat fitted curve, though single readings scatter; the % refers to the signal ratio. Potencies of inconclusive entries are doubtful fits and often do not repeat. % is set by controls: 0 for no effect and ±100 for the full control effect; potency is the fitted concentration of half-maximal effect.", "data": [{"test": "qHTS Assay for Lipid Storage Modulators in Drosophila S3 Cells", "details": "BODIPY lipid droplet fluorescence, 18-24 h, cells fed with added oleic acid; lipid storage change, negative = inhibition: at 46.1 µM (top of the series) unless noted", "summary_of_the_method": "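Drosophila S3 cells got compounds at several concentrations plus oleic acid (400 uM solution). Laser-scanning cytometry with 488 nm excitation read lipid droplets at 500-530 nm and cells at 575-640 nm. Percent activity was relative to 20 uM Triacsin C.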", "values": [{"smiles": "Cc1cc(C(=O)NCc2ccco2)no1", "lipid storage change, negative = inhibition": "inconclusive: -117%"}, {"smiles": "COc1ccc2nc(SCC(=O)N3CCN(c4ccc(F)cc4)CC3)c(C#N)cc2c1", "lipid storage change, negative = inhibition": "inconclusive: -10.9%"}, {"smiles": "COc1cc(N2C(=O)c3ccccc3C2=O)c(Cl)cc1C(=O)OCC(=O)N1CCOCC1", "lipid storage change, negative = inhibition": "inconclusive: -8%"}, {"smiles": "CCOC(=O)C1=C(CC)Nc2ccccc2N=C1NC(=O)c1ccc(C)c(S(=O)(=O)N2CCOCC2)c1", "Potency": "inconclusive: 20600 nM [rising, partial curve]"}, {"smiles": "Cn1c(=O)c2ncn(CC(=O)N=Nc3c(O)[nH]c4ccccc34)c2n(C)c1=O", "lipid storage change, negative = inhibition": "inconclusive: -80.5%"}, {"smiles": "O=S(=O)(c1ccc(OC(F)(F)F)cc1)N1CCC(O)(c2cccc(C(F)(F)F)c2)CC1", "lipid storage change, negative = inhibition": "inconclusive: 1.58%"}, {"smiles": "O=C(Cc1ccc([N+](=O)[O-])cc1)NC(C(=O)O)C(O)c1cccc([N+](=O)[O-])c1", "note": "(stereo not drawn)", "lipid storage change, negative = inhibition": "inactive"}, {"smiles": "CCCn1c(-c2cc(OC)c(OC)c(OC)c2)nc2c1c(=O)[nH]c(=O)n2Cc1ccccc1", "Potency": "active: 651 nM"}, {"smiles": "Cc1cc(C)nc(N/N=C/c2cccc3ccccc23)n1", "lipid storage change, negative = inhibition": "inconclusive: -2.81%"}, {"smiles": "COc1cc(C2SCC(=O)N2Cc2ccccc2)cc(OC)c1OC", "note": "(stereo not drawn)", "lipid storage change, negative = inhibition": "inconclusive: 39.6%"}, {"smiles": "O=C(CSCC(=O)Nc1cccc2ccccc12)Nc1cccc2ccccc12", "lipid storage change, negative = inhibition": "inconclusive: -18.4%"}, {"smiles": "CC1CN(C2CC(C)(C)NC(C)(C)C2)CCC1=O", "note": "(stereo not drawn)", "Potency": "inconclusive: 920 nM [cytotoxic, full curve]"}, {"smiles": "Cn1c2ccccc2c2cc(/C=C(\\NC(=O)c3ccccc3)C(=O)O)ccc21", "Potency": "inconclusive: 6510 nM [cytotoxic, single point]"}, {"smiles": "Cc1cc2cc(CNC(=S)Nc3ccc(OC(F)(F)F)cc3)ccc2[nH]1", "Potency": "inconclusive: 16400 nM [activator, partial curve]"}, {"smiles": "CCS(=O)(=O)CCSc1nc2ccccc2o1", "Potency": "inconclusive: 58 nM [falling, full curve, poor fit]"}, {"smiles": "O=C(NCCCN=C1NS(=O)(=O)c2ccccc21)c1ccccc1Cl", "lipid storage change, negative = inhibition": "inconclusive: -111%"}, {"smiles": "O=C1C(c2ccncc2)N(CCC2=CCCCC2)C(=O)CN1C1CCCCC1", "note": "(stereo not drawn)", "lipid storage change, negative = inhibition": "inconclusive: 16%"}, {"smiles": "CCCC(=O)N(CCc1ccc(OC)cc1)Cc1nc2ccccc2c(=O)[nH]1", "Potency": "inconclusive: 11600 nM [rising, partial curve]"}, {"smiles": "Cc1ccccc1-c1nc(-c2ccc(NC(=O)c3ccc(Br)o3)cc2)no1", "lipid storage change, negative = inhibition": "inconclusive: -11.4%"}, {"smiles": "Cc1ccc(C)c(NC(=O)CSc2nc(=O)n(CCN3CCOCC3)c3c2CCCC3)c1", "Potency": "inconclusive: 731 nM [activator, single point]"}, {"smiles": "O=C1NN(c2cccc(Br)c2)C(=O)/C1=C\\c1ccc(N2CCOCC2)cc1", "lipid storage change, negative = inhibition": "inconclusive: 35.2%"}, {"smiles": "CCOc1ccc(NC(=O)COC(=O)c2cc(=O)c3ccccc3o2)cc1", "Potency": "inconclusive: 18400 nM [activator, single point]"}, {"smiles": "S=c1[nH]nc(COc2ccccc2)n1/N=C/c1ccccn1", "lipid storage change, negative = inhibition": "inconclusive: 43.2%"}, {"smiles": "COc1cc(NC(=O)c2ccccc2)c(OC)cc1NC(C)=O", "lipid storage change, negative = inhibition": "inactive"}, {"smiles": "CCOc1ccc(CN(C)C(=O)c2ccc(NS(=O)(=O)c3ccc4[nH]c(=O)[nH]c4c3)cc2)cc1", "Potency": "inconclusive: 146 nM [falling, full curve, poor fit]"}, {"smiles": "COc1ccc(-c2cc(C(F)(F)F)c(C#N)c(SCC(=O)Nc3ccccc3C#N)n2)cc1", "lipid storage change, negative = inhibition": "inconclusive: -4.07%"}, {"smiles": "Cc1cc(C)nc(NC2=NCCN2C(=O)NC2CCCCC2)n1", "Potency": "inconclusive: 920 nM [activator, partial curve]"}, {"smiles": "CCOc1ccc(N(CC(=O)Nc2ccccc2)S(C)(=O)=O)cc1", "Potency": "inconclusive: 517 nM [falling, full curve, poor fit]"}, {"smiles": "O=C(O)CCC(=O)N1CCN(c2nc(-c3ccccc3)c3cc(Br)ccc3n2)CC1", "Potency": "inconclusive: 291 nM [activator, full curve, poor fit]"}, {"smiles": "CCn1c(SCC(=O)Nc2c(C)n(C)n(-c3ccccc3)c2=O)nnc1-c1cccc(C)c1", "Potency": "inconclusive: 82 nM [activator, full curve, poor fit]"}, {"smiles": "CCCOc1ccc(/C=C/c2[nH]c(=O)[nH]c(=O)c2[N+](=O)[O-])cc1OCC", "lipid storage change, negative = inhibition": "inactive"}, {"smiles": "Cc1ccc(CNC(=O)COC(=O)CCC(=O)c2cccs2)cc1", "lipid storage change, negative = inhibition": "inconclusive: 2.08%"}, {"smiles": "O=C1CSC(c2ccccc2[N+](=O)[O-])N1c1ccc(O)cc1", "note": "(stereo not drawn)", "lipid storage change, negative = inhibition": "inconclusive: 1.89%"}, {"smiles": "Cc1ccc(CNC(=O)CSCC(=O)O)cc1", "lipid storage change, negative = inhibition": "inconclusive: -25.5%"}, {"smiles": "Cc1ccc(N2C(=O)C3C4C=CC(CNC(=S)N5CCN(c6ccccn6)CC5)(O4)C3C2=O)cc1", "note": "(stereo not drawn)", "lipid storage change, negative = inhibition": "inconclusive: 10.7%"}, {"smiles": "CCn1nc(NS(=O)(=O)c2ccc(NC(C)=O)cc2)c2cc3cccc(C)c3nc21", "lipid storage change, negative = inhibition": "inconclusive: 43%"}, {"smiles": "CN1C(=O)CSc2ccc(NC(=O)N3CCOCC3)cc21", "lipid storage change, negative = inhibition": "inconclusive: 10%"}, {"smiles": "CC1CCCN(S(=O)(=O)c2ccc(C(=O)Nc3nnc(-c4ccccc4Cl)o3)cc2)C1", "note": "(stereo not drawn)", "lipid storage change, negative = inhibition": "inconclusive: 9.93%"}, {"smiles": "CCCCOc1ccc(C(=O)NCc2ccccn2)cc1", "lipid storage change, negative = inhibition": "inconclusive: 20.8%"}, {"smiles": "O=C(CN1C(=O)S/C(=C/c2cccs2)C1=O)N1CCCC1", "lipid storage change, negative = inhibition": "inconclusive: 36.5%"}, {"smiles": "Cc1cc(C(C)(C)C)ccc1OCCOCCN1CCCC1", "lipid storage change, negative = inhibition": "inconclusive: -9.87%"}, {"smiles": "O=C(N/N=C/c1ccc(C(=O)O)cc1)C(=O)N1CCCCCC1", "lipid storage change, negative = inhibition": "inconclusive: -4.83%"}, {"smiles": "CSc1ccccc1NC(=O)c1cnc2sc(C)cn2c1=O", "lipid storage change, negative = inhibition": "inconclusive: 22.8%"}, {"smiles": "COc1ccc(CSc2nnnn2C)cc1[N+](=O)[O-]", "lipid storage change, negative = inhibition": "inconclusive: 5.13%"}, {"smiles": "COc1ccc(OCCOC(=O)c2cccs2)cc1", "Potency": "inconclusive: 4110 nM [falling, full curve, poor fit]"}, {"smiles": "CC(C)=C1C2CCC1C1C(=O)N(c3nc(-c4ccc(F)cc4)c(C)s3)C(=O)C21", "note": "(stereo not drawn)", "lipid storage change, negative = inhibition": "inactive"}, {"smiles": "Cc1csc(=O)n1CC(=O)OCC(=O)Nc1ccccc1C(C)C", "lipid storage change, negative = inhibition": "inconclusive: -8.54%"}, {"smiles": "CCOc1cc(NS(=O)(=O)c2ccc(NC(C)=O)cc2)c(OCC)cc1NC(=O)C(C)C", "Potency": "inconclusive: 16400 nM [activator, partial curve]"}]}]}
